Source: article PMC6286387, “Physical and thermodynamic characterization of the rice gibberellin receptor/gibberellin/DELLA protein complex” (Scientific Reports, 2018)
These are yes or no findings as the source states them, for the method shown.

Target: T1, SLR1(M28-A112)ΔDELLA(E40-D56) (rice (Oryza sativa)) (UniProt Q7G7J6)
T1 sequence: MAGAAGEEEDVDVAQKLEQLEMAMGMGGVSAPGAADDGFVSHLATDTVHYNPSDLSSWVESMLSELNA
Assay: ITC; 10 μl aliquants of 400 μM OsGID1/GA3 into 1.4482 ml of 50 μM SLR1 variant, 30 °C, 20 mM sodium phosphate (pH 7.5), 150 mM NaCl, 2.0 mM β-ME, 0.1 mM GA3; both purified

B1: OsGID1 (rice gibberellin receptor GID1), Trx-free, used as the OsGID1/GA3 complex (receptor, rice (Oryza sativa), UniProt Q6L545 1-354, looked up)
chain: MAGSDEVNRNECKTVVPLHTWVLISNFKLSYNILRRADGTFERDLGEYLDRRVPANARPLEGVSSFDHIIDQSVGLEVRIYRAAAEGDAEEGAAAVTRPILEFLTDAPAAEPFPVIIFFHGGSFVHSSASSTIYDSLCRRFVKLSKGVVVSVNYRRAPEHRYPCAYDDGWTALKWVMSQPFMRSGGDAQARVFLSGDSSGGNIAHHVAVRAADEGVKVCGNILLNAMFGGTERTESERRLDGKYFVTLQDRDWYWKAYLPEDADRDHPACNPFGPNGRRLGGLPFAKSLIIVSGLDLTCDRQLAYADALREDGHHVKVVQCENATVGFYLLPNTVHYHEVMEEISDFLNANLYY
notes: Gibberellin receptor GID1 of rice (Oryza sativa); theoretical MW of the dimer printed as 79.2 kDa; The printed mass (39.6 kDa a monomer) fits the whole protein; source: recombinant, purified
For B1, the binding was “no binding (tested: 50 μM SLR1 mutants and 400 μM OsGID1/GA3)”.
